The subject of assay [1] is Human fetal astrocytes. In words: loss of total cells relative to no-compound high-control median (toxicity); higher = more toxic (fewer cells). To be noted: 24 h.
Assay [2] relates to Human fetal astrocytes. In words: synaptosome phagocytosis (pHrodo/calcein intensity ratio) relative to plate median of data wells; higher = more phagocytosis. To be noted: 24 h.

SMILES strings stand for the structures. The list shows a part of the results. Single values are uncertain, as repeats are few or missing.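 Primary human fetal astrocytes engulfed labelled rat cortical synaptosomes, measured as a red/green ratio corrected for calcein live-cell signal and scaled to the plate median. Toxicity meant calcein falling over 30%; decreased phagocytosis meant below 70% of median above 5 µM.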

Turning to `CC(=O)O[C@@H]1CC2C(C)(C)C(=O)C3OC3[C@]2(C)C2CC[C@@]3(C)[C@H](c4ccoc4)OC(=O)C4OC43[C@@]21C` (stereo not given in full), the “loss of total cells” value was -6.9% in assay [1] (1.39 µM); 1.3% in assay [1] (2.78 µM); -25.2% in assay [1] (5.56 µM); -1.9% in assay [1] (11.11 µM); -5.6% in assay [1] (22.22 µM). Besides, the synaptosome phagocytosis in assay [2] (1.39 µM) was 108%; in assay [2] (2.78 µM), 117%; in assay [2] (5.56 µM), 100%; in assay [2] (11.11 µM), 105%; in assay [2] (22.22 µM) it was 75.8%.

Turning to `COc1cc(-c2coc3cc(OCc4ccccc4)c(OC)c(O)c3c2=O)cc(O)c1OC`, the “loss of total cells” value in assay [1] (1.39 µM) was 8.3%; in assay [1] (2.78 µM) it was 14%; in assay [1] (5.56 µM), 22.1%; in assay [1] (11.11 µM) it was 5.8%; in assay [1] (22.22 µM), 27%. Also, the synaptosome phagocytosis was 106% in assay [2] (1.39 µM); 112% in assay [2] (2.78 µM); 118% in assay [2] (5.56 µM); 72.8% in assay [2] (11.11 µM); 118% in assay [2] (22.22 µM).

On to `COc1cc(N)c(Cl)cc1C(=O)NC1CCN(Cc2ccccc2)CC1`, for which the “loss of total cells” value was -49% in assay [1] (1.39 µM); -5.2% in assay [1] (2.78 µM); 10.5% in assay [1] (5.56 µM); -18.8% in assay [1] (11.11 µM); -5.1% in assay [1] (22.22 µM). Further, the synaptosome phagocytosis is 110% in assay [2] (1.39 µM); 91.6% in assay [2] (2.78 µM); 87.7% in assay [2] (5.56 µM); 157% in assay [2] (11.11 µM); 89.2% in assay [2] (22.22 µM).

Consider `C[N+](C)(C)C[C@H](O)CC(=O)[O-]`, for which the “loss of total cells” value in assay [1] (1.39 µM) is 33.9%; in assay [1] (2.78 µM) it was -27%; in assay [1] (5.56 µM), 8.1%; in assay [1] (11.11 µM), 35.1%; in assay [1] (22.22 µM), 5.3%. Further, the synaptosome phagocytosis in assay [2] (1.39 µM) was 171%; in assay [2] (2.78 µM) it was 106%; in assay [2] (5.56 µM), 101%; in assay [2] (11.11 µM) it was 115%; in assay [2] (22.22 µM), 101%.

`Cn1c(=O)c2c(ncn2CC(O)CO)n(C)c1=O` (stereo not given): the “loss of total cells” value in assay [1] (1.39 µM) was -22.3%; in assay [1] (2.78 µM) it was -7.1%; in assay [1] (5.56 µM), -14.6%; in assay [1] (11.11 µM) it was 7.2%; in assay [1] (22.22 µM) it was 33.7%. For the same compound, the synaptosome phagocytosis in assay [2] (1.39 µM) is 122%; in assay [2] (2.78 µM), 131%; in assay [2] (5.56 µM), 105%; in assay [2] (11.11 µM), 96.2%; in assay [2] (22.22 µM) it was 110%.

In the case of `C[C@H]1O[C@@H](O[C@H]2[C@@H](O)C[C@H](O[C@H]3[C@@H](O)C[C@H](O[C@H]4CC[C@@]5(C)[C@H](CC[C@@H]6[C@@H]5CC[C@]5(C)[C@@H](C7=CC(=O)OC7)CC[C@]65O)C4)O[C@@H]3C)O[C@@H]2C)C[C@H](O)[C@@H]1O`, the “loss of total cells” value in assay [1] (1.39 µM) came to 43%; in assay [1] (2.78 µM) it was 30.2%; in assay [1] (5.56 µM), 9.1%; in assay [1] (11.11 µM), 49.9%; in assay [1] (22.22 µM), 53.8%. Moreover, the synaptosome phagocytosis in assay [2] (1.39 µM) was 73.1%; in assay [2] (2.78 µM), 57.3%; in assay [2] (5.56 µM), 65.6%; in assay [2] (11.11 µM), 26%; in assay [2] (22.22 µM), 38.3%.

Take `C=C(C)[C@@H]1CC=C(CO)CC1`: the “loss of total cells” value in assay [1] (1.39 µM) was -9.8%; in assay [1] (2.78 µM), 0.4%; in assay [1] (5.56 µM), 10.3%; in assay [1] (11.11 µM), -2%; in assay [1] (22.22 µM), -2.2%. For the same compound, the synaptosome phagocytosis in assay [2] (1.39 µM) is 99.9%; in assay [2] (2.78 µM), 96.2%; in assay [2] (5.56 µM) it was 105%; in assay [2] (11.11 µM), 98.4%; in assay [2] (22.22 µM), 75.9%.

With `CC(C)c1c(O)c(-c2cc3c(c(C(C)C)c2O)CCC2C(C)(C)CCC[C@]32C)cc2c1CCC1C(C)(C)CCC[C@]21C` (stereo not given in full), the “loss of total cells” value in assay [1] (1.39 µM) is -17.8%; in assay [1] (2.78 µM), -2.7%; in assay [1] (5.56 µM), 32.1%; in assay [1] (11.11 µM) it was 12.3%; in assay [1] (22.22 µM), -3.3%. Moreover, the synaptosome phagocytosis in assay [2] (1.39 µM) was 95.6%; in assay [2] (2.78 µM) it was 109%; in assay [2] (5.56 µM), 145%; in assay [2] (11.11 µM), 72.5%; in assay [2] (22.22 µM), 113%.

As to `CC(=O)NO`, the “loss of total cells” value is -6.6% in assay [1] (1.39 µM); -6.4% in assay [1] (2.78 µM); 5.1% in assay [1] (5.56 µM); -7% in assay [1] (11.11 µM); 9.1% in assay [1] (22.22 µM). The synaptosome phagocytosis in assay [2] (1.39 µM) was 64.8%; in assay [2] (2.78 µM), 83.1%; in assay [2] (5.56 µM) it was 97.9%; in assay [2] (11.11 µM), 79.5%; in assay [2] (22.22 µM), 117%.

As to `CC1CCC(C(C)C)C(O)C1` (stereo not given), the “loss of total cells” value in assay [1] (1.39 µM) is -29%; in assay [1] (2.78 µM), -3.2%; in assay [1] (5.56 µM) it was -11.8%; in assay [1] (11.11 µM) it was 32.5%; in assay [1] (22.22 µM), -7.2%. In addition, the synaptosome phagocytosis was 91.5% in assay [2] (1.39 µM); 119% in assay [2] (2.78 µM); 89% in assay [2] (5.56 µM); 128% in assay [2] (11.11 µM); 106% in assay [2] (22.22 µM).

The values above are taken from the supplement of paper PMC10689618.
